Some of the results follow. Shown are side measurements of this screen, not its main read-out; they come without a call. Compounds called inactive in the main read-out are mostly missing here. Potencies come from curve fits of mixed quality, noted in brackets.
Assay: qHTS Assay to Find Inhibitors of Chronic Active B-Cell Receptor Signaling
Settings: ABC-DLBCL IkBa-CBG/CBR reporter, luminescence ratio (green luciferase fused to IkBa over red control in TMD8 lymphoma cells), 4 h
Outline: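 Doxycycline induced both beetle luciferases in TMD8 lymphoma cells; IKK-driven degradation limits the IkappaBalpha-fused green signal, while red luminescence normalises for cell number and nonspecific effects. Compounds tested up to 46 uM, 4 hrs.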

[1] = measured here: CBR red luminescence, cell number
[2] = measured here: IkBa-CBG green luminescence

Row | SMILES | AC50 [1] | AC50 [2]
1 | CCc1c(C)sc(NC(=O)CC#N)c1C#N | 32.6 µM [rising, single point] | 
2 | COC(=O)c1c(NC(=O)Cc2ccc(OC)c(S(=O)(=O)N3CCOCC3)c2)sc(C)c1C | 8.2 µM [falling, partial curve] | 
3 | O=[N+]([O-])c1ccc(Nc2c3ccccc3nc3ccccc23)cc1 | 25.1 µM [falling, single point] | 
4 | COc1ccc(OC)c(N/C(C)=C/C(=O)c2ccccc2)c1 | 20.6 µM [rising, partial curve] | 
5 | COc1ccc(N2C(=O)C(Cc3ccccc3)NC2=S)cc1 (stereo unspecified) | 0.708 µM [rising, full curve, poor fit] | 
6 | Cc1ccc(NC(=O)CN(C)C(=O)Cn2cc(C(F)(F)F)cc(Cl)c2=O)cc1 | 25.9 µM [rising, partial curve, poor fit] | 
7 | COc1ccc(CNC(=S)Nc2ccc(Br)cc2)cc1 | 11.2 µM [falling, partial curve, poor fit] | 
8 | O=C(Nc1nnc(C(F)(F)F)s1)C1COc2ccccc2O1 (stereo unspecified) | 2.06 µM [falling, full curve, poor fit] | 
9 | CCOc1ccccc1Nc1nc(-c2sc(NC(=O)c3ccc([N+](=O)[O-])cc3)nc2C)cs1 | 11.2 µM [falling, partial curve] | 
10 | C=C1c2ccccc2NC(=O)N1c1ccc(OC)cc1 | 22.4 µM [falling, partial curve] | 
11 | N/C(=N\OC(=O)CC1CCCCC1)c1cccc(Br)c1 | 5.62 µM [rising, partial curve, poor fit] | 
12 | O=C(CCCC(=O)OCC(=O)c1cccs1)Nc1ccc(Oc2ccccc2)cc1 | 0.126 µM [falling, full curve, poor fit] | 
13 | CON(C)c1nc(OCCNC(=O)COc2ccc(Cl)cc2C)nc(N(C)C)n1 | 5.62 µM [rising, single point] | 
14 | O=C(CNc1cccc2ccccc12)N/N=C/c1ccc([N+](=O)[O-])cc1 | 0.461 µM [falling, full curve, poor fit] | 
15 | c1ccc(-c2sc3ccccc3c2-c2ccc(OCCN3CCCC3)cc2)cc1 | 1.64 µM [falling, partial curve] | 
16 | CCCCCC[N+](C)(C)CCSSCC[N+](C)(C)CCCCCC | 14.1 µM [rising, single point] | 
17 | CCS(=O)(=O)c1ccc2oc(Nc3cccc(OC)c3)nc2c1 | 35.5 µM [falling, single point] | 
18 | CC1CCCN(C(C(=O)NC2CCCCC2)c2cc3c(cc2[N+](=O)[O-])OCO3)C1 (stereo unspecified) | 7.31 µM [falling, partial curve, poor fit] | 
19 | O=C1c2cccc(OCC(=O)N3N=C(c4cccs4)CC3c3ccc(F)cc3)c2CCN1Cc1ccccc1 (stereo unspecified) | 29.1 µM [rising, single point] | 23.1 µM [falling, partial curve, poor fit]
20 | COc1ccc2nc(NC(=O)C3CC(=O)N(c4ccccc4)C3)sc2c1 (stereo unspecified) | 5.01 µM [falling, partial curve, poor fit] | 
21 | Cc1cccn2cc(CNS(=O)(=O)c3cccc(F)c3)nc12 | 3.66 µM [rising, full curve, poor fit] | 

From entry 2 to 18, as listed above:
Row | SMILES | AC50 [1] | AC50 [2]
2 | COC(=O)c1c(NC(=O)Cc2ccc(OC)c(S(=O)(=O)N3CCOCC3)c2)sc(C)c1C | 8.2 µM [falling, partial curve] | 
3 | O=[N+]([O-])c1ccc(Nc2c3ccccc3nc3ccccc23)cc1 | 25.1 µM [falling, single point] | 
4 | COc1ccc(OC)c(N/C(C)=C/C(=O)c2ccccc2)c1 | 20.6 µM [rising, partial curve] | 
5 | COc1ccc(N2C(=O)C(Cc3ccccc3)NC2=S)cc1 (stereo unspecified) | 0.708 µM [rising, full curve, poor fit] | 
6 | Cc1ccc(NC(=O)CN(C)C(=O)Cn2cc(C(F)(F)F)cc(Cl)c2=O)cc1 | 25.9 µM [rising, partial curve, poor fit] | 
7 | COc1ccc(CNC(=S)Nc2ccc(Br)cc2)cc1 | 11.2 µM [falling, partial curve, poor fit] | 
8 | O=C(Nc1nnc(C(F)(F)F)s1)C1COc2ccccc2O1 (stereo unspecified) | 2.06 µM [falling, full curve, poor fit] | 
9 | CCOc1ccccc1Nc1nc(-c2sc(NC(=O)c3ccc([N+](=O)[O-])cc3)nc2C)cs1 | 11.2 µM [falling, partial curve] | 
10 | C=C1c2ccccc2NC(=O)N1c1ccc(OC)cc1 | 22.4 µM [falling, partial curve] | 
11 | N/C(=N\OC(=O)CC1CCCCC1)c1cccc(Br)c1 | 5.62 µM [rising, partial curve, poor fit] | 
12 | O=C(CCCC(=O)OCC(=O)c1cccs1)Nc1ccc(Oc2ccccc2)cc1 | 0.126 µM [falling, full curve, poor fit] | 
13 | CON(C)c1nc(OCCNC(=O)COc2ccc(Cl)cc2C)nc(N(C)C)n1 | 5.62 µM [rising, single point] | 
14 | O=C(CNc1cccc2ccccc12)N/N=C/c1ccc([N+](=O)[O-])cc1 | 0.461 µM [falling, full curve, poor fit] | 
15 | c1ccc(-c2sc3ccccc3c2-c2ccc(OCCN3CCCC3)cc2)cc1 | 1.64 µM [falling, partial curve] | 
16 | CCCCCC[N+](C)(C)CCSSCC[N+](C)(C)CCCCCC | 14.1 µM [rising, single point] | 
17 | CCS(=O)(=O)c1ccc2oc(Nc3cccc(OC)c3)nc2c1 | 35.5 µM [falling, single point] | 
18 | CC1CCCN(C(C(=O)NC2CCCCC2)c2cc3c(cc2[N+](=O)[O-])OCO3)C1 (stereo unspecified) | 7.31 µM [falling, partial curve, poor fit] | 

Next compounds:

Row | SMILES | AC50 [1] | AC50 [2]
22 | COc1ccccc1-c1sc2ccccc2c1-c1ccccc1OC | 16.4 µM [rising, single point] | 
23 | COc1cccc(NC(=O)Cc2csc(NC(=O)Nc3ccccc3OC)n2)c1 | 18.4 µM [falling, partial curve, poor fit] | 
24 | CCOC(=O)CN(C(=O)CSc1nnc2c(n1)[nH]c1ccc(OC)cc12)c1ccc(F)cc1 | 6.31 µM [falling, single point] | 
25 | CC(=O)c1ccc(NC(=O)Nc2ccccc2)cc1 | 14.6 µM [falling, partial curve, poor fit] | 
26 | Cc1ccc(NC(=S)N/N=C2/CCCc3c(C)cc(C)cc32)cc1 | 29.1 µM [rising, single point] | 
27 | Cc1ccc(NC(=O)CSc2nnc(-c3ccccn3)n2N)c(Br)c1 | 6.31 µM [falling, partial curve] | 
28 | C=CCOC(=O)C1=C(C)N=C2SCCC(=O)N2C1/C=C/c1ccccc1 (stereo unspecified) | 35.5 µM [falling, single point] | 
29 | CCC(C)Nc1nc(-c2c[nH]c3ccccc23)cs1 (stereo unspecified) | 1.26 µM [falling, full curve] | 
30 | COC(=O)c1ccc(OCC(=O)c2ccc(O)cc2O)cc1 | 20 µM [falling, single point] | 
31 | O=C(Nc1cccnc1)Nc1ccc(Cl)cc1Cl | 10 µM [rising, partial curve, poor fit] | 
32 | ClCc1nnc(-c2cc3c(s2)CCCC3)o1 | 22.4 µM [falling, single point] | 
33 | COc1ccc(-c2ccc(=O)n(Cc3cc(=O)n4ccccc4n3)n2)cc1 | 29.1 µM [rising, single point] | 
34 | O=C(NCc1ccccc1)C(=O)NCC(c1ccco1)N1CCN(c2ccccc2F)CC1 (stereo unspecified) | 35.5 µM [rising, single point] | 
35 | COc1ccc(/C=C(/NC(=O)c2ccccc2)C(=O)NC(Cc2c[nH]c3ccccc23)C(=O)O)cc1 (stereo unspecified) | 7.08 µM [falling, partial curve, poor fit] | 
36 | CCN(CC)C(=O)CC(c1cc(OC)c(OC)c(OC)c1)c1c(OC)cc(OC)c2ccc(=O)oc12 (stereo unspecified) | 35.5 µM [rising, single point] | 
37 | CCOC(=O)C1(CCc2ccccc2)CCN(C(=O)C2=C(C)OCCO2)CC1 | 35.5 µM [falling, single point] | 
38 | COc1ccc(NC(=O)c2cc3cccc(OC)c3oc2=Nc2ccc(C(=O)O)cc2)cc1OC | 0.316 µM [falling, full curve] | 
39 | COc1ccc(-c2nc(SCC(=O)NC3CCCCC3)n[nH]2)cc1 | 8.91 µM [falling, partial curve, poor fit] | 
40 | O=c1[nH]c(=O)n(C2C[C@H](O)[C@@H](CO)O2)cc1C(F)(F)F (stereo partly specified) | 7.31 µM [rising, partial curve, poor fit] | 
41 | COC(=O)[C@H](CCSC)NC(=O)Nc1ccc(C(C)C)cc1 | 5.62 µM [rising, partial curve] | 
42 | CSc1cccc(NC(=O)/C=C/c2cccc(Cl)c2)c1 | 23.1 µM [falling, single point] | 

Row | SMILES | AC50 [1] | AC50 [2]
43 | Clc1ccc(OCCOCCN2CCCCC2)c(Br)c1 | 3.55 µM [falling, full curve, poor fit] | 
44 | NS(=O)(=O)c1ccc(CCNC(=O)c2ccccc2-c2ccccc2)cc1 | 3.55 µM [falling, single point] | 3.16 µM [rising, partial curve, poor fit]
45 | O=C(NCc1ccccc1)C12CC3CC(CC(C3)C1)C2 | 6.51 µM [rising, single point] | 
46 | Cc1ccccc1C(=O)Nc1nnc(CC(=O)N/N=C/c2ccco2)s1 | 8.91 µM [falling, partial curve] | 
47 | Cc1onc(-c2ccccc2Cl)c1C(=O)OCC(=O)Nc1cccc(S(=O)(=O)N(C)C)c1 | 35.5 µM [falling, single point] | 
48 | O=C(Nc1ccccc1)N1CCCN(c2ccc(C(F)(F)F)cn2)CC1 | 8.91 µM [rising, partial curve, poor fit] | 
49 | Oc1ccccc1N=Nc1nc(-c2ccccc2)c(-c2ccccc2)[nH]1 | 29.1 µM [falling, single point] | 
50 | O=C(NCc1ccco1)c1cccc2c1C(=O)c1ccc(/C=C/c3ccccc3)cc1S2(=O)=O | 10.3 µM [falling, partial curve] | 
51 | Cc1csc(NC(=O)CCC(=O)N(CC(=O)NC2CCCC2)c2ccccc2)n1 | 20 µM [falling, partial curve, poor fit] | 
52 | CC(=O)Nc1ccccc1C(=O)C(=O)Nc1ccc(F)cc1 | 3.98 µM [rising, single point] | 
53 | C[C@]12C=CC(=O)C=C1CC[C@@H]1[C@@H]2[C@@H](O)C[C@@]2(C)[C@H]1CC[C@]2(O)C(=O)CO |  | 0.631 µM [falling, partial curve, poor fit]
54 | O=c1[nH]n(-c2ncnc3c2cnn3-c2ccccc2)c(=O)c2ccccc12 | 12.6 µM [falling, single point] | 
55 | COc1cc(OC)c2c(c1)C(=O)c1cc(OC)cc(OC)c1C2=O | 0.355 µM [falling, full curve] | 
56 | CCOC(=O)c1c(SCC(=O)Nc2nc(C)cs2)nc(=O)[nH]c1C | 3.55 µM [falling, partial curve, poor fit] | 
57 | Cc1cc(NC(=O)c2ccccc2C)no1 | 10 µM [falling, partial curve] | 
58 | Cc1nc(NC(=O)/C=C/c2ccccc2)sc1C(=O)N(C)C | 1.46 µM [rising, partial curve, poor fit] | 
59 | O=C1C2CC=CCC2C(=O)N1c1n[nH]c(CCc2ccccc2)n1 (stereo unspecified) | 18.4 µM [rising, single point] | 
60 | CCC(C)[C@@H](NC(=O)OC(C)(C)C)c1nnc(S(=O)(=O)Cc2cccc(C)c2)o1 (stereo partly specified) | 7.94 µM [falling, partial curve] | 
61 | CCC(=O)NC(=S)Nc1cccc(Cl)c1N1CCCCC1 | 25.1 µM [rising, single point] | 31.6 µM [falling, single point]
62 | Nc1[nH]nc2nc(NCc3ccccc3)c3c(c12)CCN(Cc1ccccc1)C3 | 3.98 µM [rising, full curve, poor fit] | 
63 | Cc1nc(-c2coc3cc(OCC(=O)O)ccc3c2=O)cs1 | 20 µM [falling, single point] | 
